The list is a part of this screen's results and no random one: it gathers tests that were run many times, whatever their T/C, doses with no T/C, and many T/C values between a quarter and a half above the control. Other doses and runs of a compound stand elsewhere. T/C gives the treated animals as a percentage of the vehicle group. Some entries give survivors of the animals treated and no T/C: the source holds a T/C of zero for them, seemingly a mark for toxic or unscored doses. Some doses without a T/C left all or most animals alive at the check, yet need not have been tolerated: the source hardly ever lists a survival T/C far under the control, and the zero likely stands for such cases as well. Counts of survivors are from the toxicity check (mostly the fifth day) where no day follows; animals may have died later. Schedule codes are those of the source, taken here to give the interval after Q, in days (D) or hours (H), and the number of doses after X. Some entries hold several experiments; the values are given in rising order. For survival time, the PubChem record calls one and a half times the control and up active, and a quarter to a half above the control has no call in these data; cut-offs in other NCI protocols can differ. Marks such as (2×) stand for listed records that agree. Some T/C values carry the count of animals alive at the toxicity check (mostly the fifth day); where none is given, no animal had died by that day.
Tested on: P388 leukemia ip, CD2F1 mice, survival T/C
Experiment: NCI In Vivo Anticancer Drug Screen. Data for tumor model P388 Leukemia (intraperitoneal) in CD2F1 (CDF1) mice
Conditions: T/C endpoint: median survival time, higher T/C = longer survival
[1] = dose: 100.0 mg/kg/injection, schedule: Q01DX009 (ip), vehicle: saline
[2] = dose: 200.0 mg/kg/injection, schedule: Q01DX009 (ip), vehicle: saline
[3] = dose: 200.0 mg/kg/injection, schedule: Q01DX005 (ip), vehicle: saline with Tween-80
[4] = dose: 120.0 mg/kg/injection, schedule: Q01DX005 (ip), vehicle: saline with Tween-80
[5] = dose: 240.0 mg/kg/injection, schedule: Q01DX005 (ip), vehicle: saline with Tween-80
[6] = dose: 60.0 mg/kg/injection, schedule: Q01DX005 (ip), vehicle: Klucel (hydroxypropylcellulose) (HPC)
[7] = dose: 120.0 mg/kg/injection, schedule: Q01DX005 (ip), vehicle: Klucel (hydroxypropylcellulose) (HPC)
[8] = dose: 240.0 mg/kg/injection, schedule: Q01DX005 (ip), vehicle: Klucel (hydroxypropylcellulose) (HPC)
[9] = dose: 100.0 mg/kg/injection, schedule: Q01DX005 (ip), vehicle: saline
[10] = dose: 200.0 mg/kg/injection, schedule: Q01DX005 (ip), vehicle: saline
[11] = dose: 100.0 mg/kg/injection, schedule: Q01DX005 (ip), vehicle: saline with Tween-80
[12] = dose: 50.0 mg/kg/injection, schedule: Q01DX005 (ip), vehicle: Klucel (hydroxypropylcellulose) (HPC)
[13] = dose: 100.0 mg/kg/injection, schedule: Q01DX005 (ip), vehicle: Klucel (hydroxypropylcellulose) (HPC)
[14] = dose: 200.0 mg/kg/injection, schedule: Q01DX005 (ip), vehicle: Klucel (hydroxypropylcellulose) (HPC)
[15] = dose: 50.0 mg/kg/injection, schedule: Q01DX009 (ip), vehicle: saline

Structure (SMILES): Cc1c(Cc2ccccc2)[n+](=O)c2ccccc2n1[O-]
- survivor count (dose: 600.0 mg/kg/injection, schedule: Q04DX003 (ip), vehicle: saline with Tween-80): 3 of 6
- survivor count (dose: 800.0 mg/kg/injection, schedule: Q01DX005 (ip), vehicle: Klucel (hydroxypropylcellulose) (HPC)): 2 of 6

Structure (SMILES): O=C(c1ccccc1)c1cccc[n+]1Cc1ccccc1
- survivor count [1]: 6 of 6
- survivor count [2]: 0 of 6

Structure (SMILES): COc1ccc2c(c1)OCCN(C)OC2c1ccccc1 (configuration not stated)
- survivor count [3]: 6 of 6

Structure (SMILES): O=C1C(c2ccccc2)C2NC(C1c1ccccc1)C([N+](=O)[O-])C=C2[N+](=O)[O-] (configuration not stated)
- survivor count (dose: 12.5 mg/kg/injection, schedule: Q01DX001 (ip), vehicle: Klucel (hydroxypropylcellulose) (HPC)): 1 of 6

Structure (SMILES): Cc1ccc2nc(=O)c3cccnc3n2c1
- survivor count (dose: 60.0 mg/kg/injection, schedule: Q01DX005 (ip), vehicle: saline): 0 of 6
- survivor count (dose: 120.0 mg/kg/injection, schedule: Q01DX005 (ip), vehicle: saline): 0 of 6
- survivor count (dose: 240.0 mg/kg/injection, schedule: Q01DX005 (ip), vehicle: saline): 0 of 6

Structure (SMILES): C/C(=N/NS(=O)(=O)c1c(C(C)C)cc(C(C)C)cc1C(C)C)c1cccc2c1OCO2
- survivor count [4]: 6 of 6
- survivor count [5]: 6 of 6

Structure (SMILES): COC1OCN(Cc2ccccc2)CC1(C)C (configuration not stated)
- survivor count (dose: 200.0 mg/kg/injection, schedule: Q01DX009 (ip), vehicle: saline with Tween-80): 6 of 6

Structure (SMILES): CCCCCCCCCCCCCC(C)N1CCCN=C1C (configuration not stated)
- survivor count (dose: 50.0 mg/kg/injection, schedule: Q01DX009 (ip), vehicle: Klucel (hydroxypropylcellulose) (HPC)): 0 of 6
- survivor count (dose: 100.0 mg/kg/injection, schedule: Q01DX009 (ip), vehicle: Klucel (hydroxypropylcellulose) (HPC)): 0 of 6
- survivor count (dose: 200.0 mg/kg/injection, schedule: Q01DX009 (ip), vehicle: Klucel (hydroxypropylcellulose) (HPC)): 0 of 6

Structure (SMILES): CC(=O)C1CCC2=C(C1)C(=O)c1cc3c(-c4ccccc4)oc(-c4ccccc4)c3cc1C2=O (configuration not stated)
- survivor count (dose: 7.5 mg/kg/injection, schedule: Q01DX005 (ip), vehicle: Klucel (hydroxypropylcellulose) (HPC)): 6 of 6
- survivor count (dose: 15.0 mg/kg/injection, schedule: Q01DX005 (ip), vehicle: Klucel (hydroxypropylcellulose) (HPC)): 6 of 6
- survivor count (dose: 30.0 mg/kg/injection, schedule: Q01DX005 (ip), vehicle: Klucel (hydroxypropylcellulose) (HPC)): 5 of 6 and 6 of 6
- survivor count [6]: 6 of 6
- survivor count [7]: 6 of 6
- survivor count [8]: 6 of 6

Structure (SMILES): CCOc1ccccc1NC1=C(Cl)C(=O)c2ccccc2C1=O
- survivor count [4]: 0 of 6
- survivor count [5]: 0 of 6

Structure (SMILES): CCCC(O)(CCC)C1=NCCN1
- survivor count [9]: 0 of 6
- survivor count [10]: 0 of 6

Structure (SMILES): Cc1cccc2c(NCCCCCCNc3cc(C)[n+](C)c4c(C)cccc34)cc(C)[n+](C)c12
- survivor count (dose: 50.0 mg/kg/injection, schedule: Q01DX005 (ip), vehicle: saline with Tween-80): 0 of 5
- survivor count [11]: 0 of 5
- survivor count [3]: 0 of 5

Structure (SMILES): CCc1cccc(CC)c1NC(=O)OCCN(CC)CC
- survivor count [5]: 0 of 6

Structure (SMILES): CCN(CC)CCCC(Nc1c2ccc(Cl)cc2nc2ccc(OC)cc12)c1cccc2ccccc12 (configuration not stated)
- survivor count [12]: 0 of 5
- survivor count [13]: 0 of 5
- survivor count [14]: 0 of 5

Structure (SMILES): COC(=O)/C(C1=C(Br)C(=O)C(C)=C(Br)C1=O)=C1/CCCN1
- survivor count (dose: 150.0 mg/kg/injection, schedule: Q04DX002 (ip), vehicle: Klucel (hydroxypropylcellulose) (HPC)): 1 of 6
- survivor count (dose: 300.0 mg/kg/injection, schedule: Q04DX002 (ip), vehicle: Klucel (hydroxypropylcellulose) (HPC)): 2 of 6

Structure (SMILES): Cc1ncc([N+](=O)[O-])n1CCOc1c(Cl)cc(Cl)cc1CN(C)C1CCCCC1
- survivor count [12]: 0 of 5
- survivor count [13]: 0 of 5
- survivor count [14]: 0 of 5

Structure (SMILES): COc1ccc2nc3cc(Cl)ccc3c(NCCCN3CCCC3)c2n1
- survivor count (dose: 50.0 mg/kg/injection, schedule: Q01DX009 (ip), vehicle: water): 3 of 6
- survivor count (dose: 100.0 mg/kg/injection, schedule: Q01DX009 (ip), vehicle: water): 1 of 6
- survivor count (dose: 200.0 mg/kg/injection, schedule: Q01DX009 (ip), vehicle: water): 0 of 6

Structure (SMILES): COc1cc(C2CC(C)(OC)Oc3cc4c(cc32)OCO4)cc(OC)c1O (configuration not stated)
- survivor count (dose: 60.0 mg/kg/injection, schedule: Q01DX005 (ip), vehicle: saline with Tween-80): 6 of 6
- survivor count [4]: 6 of 6
- survivor count [5]: 4 of 6

Structure (SMILES): CN=C(c1ccc(NC(=O)c2cccc(C(=O)Nc3ccc(C(=NC)N(C)C)cc3)c2)cc1)N(C)C
- survivor count (dose: 12.5 mg/kg/injection, schedule: Q01DX005 (ip), vehicle: saline): 1 of 6
- survivor count (dose: 25.0 mg/kg/injection, schedule: Q01DX005 (ip), vehicle: saline): 0 of 6
- survivor count (dose: 50.0 mg/kg/injection, schedule: Q01DX005 (ip), vehicle: saline): 0 of 6
- survivor count [9]: 0 of 6
- survivor count [10]: 0 of 6

Structure (SMILES): C(=C/c1cc2ccc(C3=NCCN3)cc2o1)/c1cc2ccc(C3=NCCN3)cc2[nH]1
- T/C (dose: 25.0 mg/kg/injection, schedule: Q04DX003 (ip), vehicle: suspension in saline): 139 % of control
- survivor count (dose: 200.0 mg/kg/injection, schedule: Q04DX003 (ip), vehicle: suspension in saline): 3 of 6
- survivor count (dose: 400.0 mg/kg/injection, schedule: Q04DX003 (ip), vehicle: suspension in saline): 0 of 6

Structure (SMILES): CC(C)[CH2][Pb]([CH2]C(C)C)([CH2]C(C)C)[n]1ccnc1
- survivor count [15]: 0 of 6
- survivor count [1]: 0 of 6
- survivor count [2]: 0 of 6

Structure (SMILES): C/C(=N\Nc1cc(C)c2ccccc2n1)c1ccccn1
- survivor count [11]: 6 of 6
- survivor count [3]: 3 of 6

Structure (SMILES): [O-][n+]1c(-c2ccccc2)c(Cl)c(-c2ccccc2)n1O
- survivor count (dose: 120.0 mg/kg/injection, schedule: Q01DX005 (ip), vehicle: Klucel + Tween-80): 2 of 6
- survivor count (dose: 240.0 mg/kg/injection, schedule: Q01DX005 (ip), vehicle: Klucel + Tween-80): 0 of 6

Structure (SMILES): CCCCCCCCCCCCCCCCCC(=O)NCNC(=O)CCCCCCCCCCCCCCCCC
- survivor count (dose: 37.5 mg/kg/injection, schedule: Q04DX003 (ip), vehicle: saline): 6 of 6

Structure (SMILES): COc1c(OC(C)=O)c(OC(C)=O)cc2c1-c1ccc(OC)c(=O)cc1C(NC(C)=O)CC2 (configuration not stated)
- T/C (dose: 1.0 mg/kg/injection, schedule: Q01DX005 (ip), vehicle: saline): 133 % of control (2×)
- T/C (dose: 2.0 mg/kg/injection, schedule: Q01DX005 (ip), vehicle: saline): 145 and 146 % of control
- T/C (dose: 4.0 mg/kg/injection, schedule: Q01DX005 (ip), vehicle: saline): 142 % of control

Structure (SMILES): COc1cc(/C=N/Nc2ccc([N+](=O)[O-])cc2)cc(OC)c1OC
- survivor count (dose: 200.0 mg/kg/injection, schedule: Q04DX003 (ip), vehicle: saline with Tween-80): 6 of 6

Structure (SMILES): CC(=O)Nc1ccc(N=Nc2c(C)nn(C(=N)N)c2C)cc1
- T/C (dose: 25.0 mg/kg/injection, schedule: Q01DX009 (ip), vehicle: saline): 128 and 130 % of control
- T/C [15]: 140 and 146 % of control [5 of 6 alive]

Structure (SMILES): COc1cc2c(cc1OC)C(O)C1CCCNC1C2 (configuration not stated)
- survivor count (dose: 100.0 mg/kg/injection, schedule: Q04DX002 (ip), vehicle: saline): 1 of 6

Structure (SMILES): CC(C)(C)C1=CCN(C(C)(C)/C=N\O)CC1
- survivor count [11]: 4 of 6
- survivor count [3]: 0 of 6

Structure (SMILES): [Cl][Sn]([Cl])([c]1ccccc1)[c]1ccccc1.c1ccc2nc(-c3ccc4ccccc4n3)ccc2c1
- T/C [6]: 132 % of control [5 of 6 alive]
- survivor count [6]: 2 of 6 and 6 of 6
- survivor count [7]: 1 of 6
- survivor count [8]: 0 of 6
